# The other results are listed elsewhere or left out.
# B1: CD34 (Homo sapiens), P28906 (protein)
# chain: MGSSHHHHHHSSGLVPRGSHMSTSLATSPTKPYTSSSPILSDIKAEIKCSGIREVKLTQGICLEQNKTSSCAEFKKDRGEGLARVLCGEEQADADAGAQVCSLLLAQSEVRPQCLLLVLANRTEISSKLQLMKKHQSDLKKLGILDFTEQDVASHQSYSQKT
# Key:
# Assay in all cases: glycan array binding signal (z-score within array); higher = stronger binding
# Settings in all cases: glycan notation: IUPAC condensed, linker removed
# [1] = biological target: Neu5Ac(a2-6)Gal(b1-4)GlcNAc(b1-3)Gal(b1-4)GlcNAc(b1-3)Gal(b1-4)GlcNAc
# How it was run: (§1)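 The Consortium for Functional Glycomics database supplied 3228 glycan arrays, of which those lacking an available protein sequence were dropped. The binding signal, a within-array Z-score, was averaged across arrays of the same protein sequence and across linkers. Negative scores can be read as non-binding.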
# [2] = biological target: Neu5Ac(a2-6)Gal(b1-4)GlcNAc(b1-3)Gal(b1-4)GlcNAc(b1-3)Gal(b1-4)GlcNAc(b1-2)Man(a1-3)[Neu5Ac(a2-6)Gal(b1-4)GlcNAc(b1-3)Gal(b1-4)GlcNAc(b1-3)Gal(b1-4)GlcNAc(b1-2)Man(a1-6)]GalNAc
# How it was run: as §1
# [3] = biological target: Neu5Ac(a2-6)Gal(b1-4)GlcNAc(b1-3)Gal(b1-4)GlcNAc(b1-3)GalNAc
# How it was run: as §1
# [4] = biological target: Neu5Ac(a2-6)Gal(b1-4)GlcNAc(b1-3)Gal(b1-4)GlcNAc(b1-3)[Neu5Ac(a2-6)Gal(b1-4)GlcNAc(b1-3)Gal(b1-4)GlcNAc(b1-6)]GalNAc
# How it was run: as §1
# [5] = biological target: Neu5Ac(a2-6)Gal(b1-4)GlcNAc(b1-3)Gal(b1-4)GlcNAc(b1-6)[Gal(b1-3)]GalNAc
# How it was run: as §1
# [6] = biological target: Neu5Ac(a2-6)Gal(b1-4)GlcNAc(b1-3)Gal(b1-4)[Fuc(a1-3)]GlcNAc(b1-3)Gal(b1-4)[Fuc(a1-3)]GlcNAc
# How it was run: as §1
# [7] = biological target: Neu5Ac(a2-6)Gal(b1-4)GlcNAc(b1-3)GalNAc
# How it was run: as §1
# [8] = biological target: Neu5Ac(a2-6)Gal(b1-4)GlcNAc(b1-3)[Neu5Ac(a2-6)Gal(b1-4)GlcNAc(b1-6)]GalNAc
# How it was run: as §1
# [9] = biological target: Neu5Ac(a2-6)Gal(b1-4)GlcNAc(b1-6)GalNAc
# How it was run: as §1
# [10] = biological target: Neu5Ac(a2-6)Gal(b1-4)GlcNAc(b1-6)[Gal(b1-3)GlcNAc(b1-3)]Gal(b1-4)Glc
# How it was run: as §1
# [11] = biological target: Neu5Ac(a2-6)Gal(b1-4)GlcNAc(b1-6)[Gal(b1-3)]GalNAc
# How it was run: as §1
# [12] = biological target: Neu5Ac(a2-6)Gal(b1-4)GlcNAc6S
# How it was run: as §1
# Neu5Ac(a2-6)GalNAc = biological target: Neu5Ac(a2-6)GalNAc
# How it was run: as §1
# [13] = biological target: Neu5Ac(a2-6)GalNAc(b1-4)GlcNAc
# How it was run: as §1
# [14] = biological target: Neu5Ac(a2-6)GalNAc(b1-4)GlcNAc6S
# How it was run: as §1
# [15] = biological target: Neu5Ac(a2-6)GlcNAc(b1-4)GlcNAc
# How it was run: as §1
# [16] = biological target: Neu5Ac(a2-6)GlcNAc(b1-4)GlcNAc(b1-4)GlcNAc
# How it was run: as §1
# Neu5Ac(a2-8)Neu5Ac = biological target: Neu5Ac(a2-8)Neu5Ac
# How it was run: as §1
# [17] = biological target: Neu5Ac(a2-8)Neu5Ac(a2-3)Gal(b1-3)GalNAc(b1-4)[Neu5Ac(a2-3)]Gal(b1-4)Glc
# How it was run: as §1
# [18] = biological target: Neu5Ac(a2-8)Neu5Ac(a2-3)Gal(b1-3)GalNAc(b1-4)[Neu5Ac(a2-8)Neu5Ac(a2-3)]Gal(b1-4)Glc
# How it was run: as §1
# [19] = biological target: Neu5Ac(a2-8)Neu5Ac(a2-3)Gal(b1-4)Glc
# How it was run: as §1
# [20] = biological target: Neu5Ac(a2-8)Neu5Ac(a2-3)Gal(b1-4)GlcNAc
# How it was run: as §1
# [21] = biological target: Neu5Ac(a2-8)Neu5Ac(a2-3)[Gal(b1-3)GalNAc(b1-4)]Gal(b1-4)Glc
# How it was run: as §1
# [22] = biological target: Neu5Ac(a2-8)Neu5Ac(a2-3)[GalNAc(b1-4)]Gal(b1-4)Glc
# How it was run: as §1
# [23] = biological target: Neu5Ac(a2-8)Neu5Ac(a2-8)Neu5Ac
# How it was run: as §1
# [24] = biological target: Neu5Ac(a2-8)Neu5Ac(a2-8)Neu5Ac(a2-3)Gal(b1-4)Glc
# How it was run: as §1
# [25] = biological target: Neu5Ac(a2-8)Neu5Ac(a2-8)Neu5Ac(a2-3)[Gal(b1-3)GalNAc(b1-4)]Gal(b1-4)Glc
# How it was run: as §1
# [26] = biological target: Neu5Ac(a2-8)Neu5Ac(a2-8)Neu5Ac(a2-3)[GalNAc(b1-4)]Gal(b1-4)Glc
# How it was run: as §1
# [27] = biological target: Neu5Ac(a2-8)Neu5Ac(a2-8)Neu5Ac(a2-8)Neu5Ac(a2-3)[GalNAc(b1-4)]Gal(b1-4)Glc
# How it was run: as §1
# [28] = biological target: Neu5Ac(a2-8)Neu5Gc(a2-3)Gal(b1-4)GlcNAc
# How it was run: as §1
# [29] = biological target: Neu5Ac(b2-6)Gal(b1-4)GlcNAc
# How it was run: as §1
# Neu5Ac(b2-6)GalNAc = biological target: Neu5Ac(b2-6)GalNAc
# How it was run: as §1
# [30] = biological target: Neu5Ac9Ac(a2-3)Gal(b1-3)GlcNAc
# How it was run: as §1
# [31] = biological target: Neu5Ac9Ac(a2-3)Gal(b1-4)GlcNAc
# How it was run: as §1
# [32] = biological target: Neu5Ac9Ac(a2-6)Gal(b1-4)GlcNAc
# How it was run: as §1
# [33] = biological target: Neu5Gc(a2-3)Gal(b1-3)GlcNAc
# How it was run: as §1
# [34] = biological target: Neu5Gc(a2-3)Gal(b1-3)[Fuc(a1-4)]GlcNAc
# How it was run: as §1
# Neu5Gc(a2-3)Gal(b1-4)Glc = biological target: Neu5Gc(a2-3)Gal(b1-4)Glc
# How it was run: as §1
# [35] = biological target: Neu5Gc(a2-3)Gal(b1-4)GlcNAc
# How it was run: as §1
# [36] = biological target: Neu5Gc(a2-3)Gal(b1-4)GlcNAc(b1-3)Gal(b1-4)GlcNAc(b1-2)Man(a1-3)[Neu5Gc(a2-3)Gal(b1-4)GlcNAc(b1-3)Gal(b1-4)GlcNAc(b1-2)Man(a1-6)]Man(b1-4)GlcNAc(b1-4)GlcNAc
# How it was run: as §1
# [37] = biological target: Neu5Gc(a2-3)Gal(b1-4)[Fuc(a1-3)]GlcNAc
# How it was run: as §1
# [38] = biological target: Neu5Gc(a2-6)Gal(b1-4)GlcNAc
# How it was run: as §1
# Neu5Gc(a2-6)GalNAc = biological target: Neu5Gc(a2-6)GalNAc
# How it was run: as §1
# [39] = biological target: Neu5Gc(a2-8)Neu5Ac(a2-3)Gal(b1-4)GlcNAc
# How it was run: as §1
# [40] = biological target: Neu5Gc(a2-8)Neu5Gc(a2-3)Gal(b1-4)GlcNAc
# How it was run: as §1
binder,measurement,setting,value
B1,glycan array binding signal (z-score),[1],0.533
same,glycan array binding signal (z-score),[2],1.44
same,glycan array binding signal (z-score),[3],0.803
same,glycan array binding signal (z-score),[4],0.8
same,glycan array binding signal (z-score),[5],-0.659
same,glycan array binding signal (z-score),[6],-0.272
same,glycan array binding signal (z-score),[7],-0.496
same,glycan array binding signal (z-score),[8],-0.477
same,glycan array binding signal (z-score),[9],1.05
same,glycan array binding signal (z-score),[10],-0.278
same,glycan array binding signal (z-score),[11],0.485
same,glycan array binding signal (z-score),[12],-0.077
same,glycan array binding signal (z-score),Neu5Ac(a2-6)GalNAc,-0.596
same,glycan array binding signal (z-score),[13],-0.952
same,glycan array binding signal (z-score),[14],0.66
same,glycan array binding signal (z-score),[15],0.736
same,glycan array binding signal (z-score),[16],-1.17
same,glycan array binding signal (z-score),Neu5Ac(a2-8)Neu5Ac,-0.312
same,glycan array binding signal (z-score),[17],-1.13
same,glycan array binding signal (z-score),[18],0.671
same,glycan array binding signal (z-score),[19],-0.762
same,glycan array binding signal (z-score),[20],-0.699
same,glycan array binding signal (z-score),[21],-0.858
same,glycan array binding signal (z-score),[22],-0.229
same,glycan array binding signal (z-score),[23],0.347
same,glycan array binding signal (z-score),[24],0.301
same,glycan array binding signal (z-score),[25],-0.565
same,glycan array binding signal (z-score),[26],0.111
same,glycan array binding signal (z-score),[27],0.217
same,glycan array binding signal (z-score),[28],-0.375
same,glycan array binding signal (z-score),[29],-0.354
same,glycan array binding signal (z-score),Neu5Ac(b2-6)GalNAc,-0.749
same,glycan array binding signal (z-score),[30],0.396
same,glycan array binding signal (z-score),[31],-0.145
same,glycan array binding signal (z-score),[32],1.28
same,glycan array binding signal (z-score),[33],0.381
same,glycan array binding signal (z-score),[34],0.294
same,glycan array binding signal (z-score),Neu5Gc(a2-3)Gal(b1-4)Glc,0.439
same,glycan array binding signal (z-score),[35],-0.844
same,glycan array binding signal (z-score),[36],0.16
same,glycan array binding signal (z-score),[37],1.71
same,glycan array binding signal (z-score),[38],-0.001
same,glycan array binding signal (z-score),Neu5Gc(a2-6)GalNAc,-0.809
same,glycan array binding signal (z-score),[39],0.077
same,glycan array binding signal (z-score),[40],-0.141

# Shown with bars between the fields: part of the list above
binder | measurement | setting | value
B1 | glycan array binding signal (z-score) | [4] | 0.8
same | glycan array binding signal (z-score) | [5] | -0.659
same | glycan array binding signal (z-score) | [6] | -0.272
same | glycan array binding signal (z-score) | [7] | -0.496
same | glycan array binding signal (z-score) | [8] | -0.477
same | glycan array binding signal (z-score) | [9] | 1.05
same | glycan array binding signal (z-score) | [10] | -0.278
same | glycan array binding signal (z-score) | [11] | 0.485
same | glycan array binding signal (z-score) | [12] | -0.077
same | glycan array binding signal (z-score) | Neu5Ac(a2-6)GalNAc | -0.596
same | glycan array binding signal (z-score) | [13] | -0.952
same | glycan array binding signal (z-score) | [14] | 0.66
